The list does not hold the whole screen: it covers a few groups of compounds. Not every dose and run of a compound is shown. T/C is the treated group as % of the vehicle group. Some entries give survivors of the animals treated and no T/C: the source holds a T/C of zero for them, seemingly a mark for toxic or unscored doses. Some survivor counts are full or nearly so, which does not show that the dose was tolerated: the source hardly ever lists a survival T/C far under the control, and the zero likely stands for such cases as well. Survivors were counted at the toxicity check, usually on the fifth day, unless a day is given; later deaths do not show. Schedules are NCI's codes, read here as Q, the interval in days (D) or hours (H), X, the number of doses. Some schedule codes hold Z or #, which are not explained here. For survival time, the PubChem record calls one and a half times the control and up active, and a quarter to a half above the control has no call in these data; cut-offs in other NCI protocols can differ. Some T/C values are marked as having no survivor count here; that says nothing about deaths at the dose. Some doses were run more than once; their values stand side by side, smallest first. Some T/C values carry the count of animals alive at the toxicity check (mostly the fifth day); without a count or a note in brackets, all were alive then.

The subject of the assay is L1210 leukemia ip in BDF1 mice, survival T/C. The assay is described as follows: NCI In Vivo Anticancer Drug Screen. Data for tumor model L1210 Leukemia (intraperitoneal) in B6D2F1 (BDF1) mice. The following applies: T/C endpoint: mean survival time, higher T/C = longer survival.
Setting [1] is: dose: 100.0 mg/kg/injection, schedule: Q04DX003 (ip), vehicle: Klucel (hydroxypropylcellulose) (HPC).
The mark [2] stands for this setting: dose: 200.0 mg/kg/injection, schedule: Q04DX003 (ip), vehicle: Klucel (hydroxypropylcellulose) (HPC).
The mark [3] stands for this setting: dose: 50.0 mg/kg/injection, schedule: Q01DX009 (ip), vehicle: Klucel (hydroxypropylcellulose) (HPC).
The mark [4] stands for this setting: dose: 100.0 mg/kg/injection, schedule: Q01DX009 (ip), vehicle: Klucel (hydroxypropylcellulose) (HPC).
Setting [5] is: dose: 400.0 mg/kg/injection, schedule: Q04DX003 (ip), vehicle: Klucel (hydroxypropylcellulose) (HPC).
The mark [6] stands for this setting: dose: 40.0 mg/kg/injection, schedule: Q01DX Z (ip), vehicle: carboxymethylcellulose (CMC).
The mark [7] stands for this setting: dose: 100.0 mg/kg/injection, schedule: Q01DX001 (ip), vehicle: saline.
Where [8] appears, read: dose: 200.0 mg/kg/injection, schedule: Q01DX001 (ip), vehicle: saline.
[9] abbreviates: dose: 400.0 mg/kg/injection, schedule: Q01DX001 (ip), vehicle: saline.

Take `CC(=O)NC(CBr)(SC(C)=O)C(=O)O` (stereo unspecified): the T/C is 95 % of control (dose: 100.0 mg/kg/injection, schedule: Q01DX001 (ip), vehicle: Klucel (hydroxypropylcellulose) (HPC)); 92 % of control (dose: 200.0 mg/kg/injection, schedule: Q01DX001 (ip), vehicle: Klucel (hydroxypropylcellulose) (HPC)); 94 % of control (dose: 400.0 mg/kg/injection, schedule: Q01DX001 (ip), vehicle: Klucel (hydroxypropylcellulose) (HPC)).
As for `CN(CN(CN(CCl)[N+](=O)[O-])[N+](=O)[O-])[N+](=O)[O-]`, the T/C (dose: 50.0 mg/kg/injection, schedule: Q04DX003 (ip), vehicle: Klucel (hydroxypropylcellulose) (HPC)) is 107 % of control [survivor count not shown]; the T/C under setting [1] was 97 % of control [survivor count not shown]; the T/C under setting [2] is 105 % of control [survivor count not shown].
As to `O=C1c2cc([N+](=O)[O-])cc([N+](=O)[O-])c2-c2c1cc([N+](=O)[O-])cc2[N+](=O)[O-]`, the T/C is 101 % of control [survivor count not shown] under setting [3] and 91 % of control [survivor count not shown] under setting [4].
For the compound `CCCc1c(CC)c(=O)[nH]c2ccccc12`, the T/C was 101 % of control [survivor count not shown] (dose: 100.0 mg/kg/injection, schedule: Q01DX001 (ip), vehicle: other); 106 % of control [survivor count not shown] (dose: 200.0 mg/kg/injection, schedule: Q01DX001 (ip), vehicle: other); 104 % of control [survivor count not shown] (dose: 400.0 mg/kg/injection, schedule: Q01DX001 (ip), vehicle: other).
In the case of `[N-]=[N+]=NCC(O)CN=[N+]=[N-]` (stereo unspecified), the T/C was 97 % of control (dose: 9.38 mg/kg/injection, schedule: Q01DX009 (ip), vehicle: saline with Tween-80) and 109 % of control (dose: 18.75 mg/kg/injection, schedule: Q01DX009 (ip), vehicle: saline with Tween-80). The survivor count (dose: 37.5 mg/kg/injection, schedule: Q01DX009 (ip), vehicle: saline with Tween-80) is given as 5 of 6.
For `CC(C)OP(=S)(Cl)OC(C)C`, the T/C reads like this: (dose: 20.0 mg/kg/injection, schedule: Q04DX003 (ip), vehicle: Klucel (hydroxypropylcellulose) (HPC)) 100 % of control; (dose: 25.0 mg/kg/injection, schedule: Q01DX009 (ip), vehicle: Klucel (hydroxypropylcellulose) (HPC)) 109 % of control; (dose: 40.0 mg/kg/injection, schedule: Q04DX003 (ip), vehicle: Klucel (hydroxypropylcellulose) (HPC)) 102 % of control; under setting [3], 101 % of control; (dose: 80.0 mg/kg/injection, schedule: Q04DX003 (ip), vehicle: Klucel (hydroxypropylcellulose) (HPC)) 106 % of control [5 of 6 alive]; under setting [4], 92 % of control. Under setting [1], the T/C is 96 % of control. Also, the survivor count is 3 of 6 under setting [2] and 0 of 6 under setting [5].
Turning to `N/C(=N\[N+](=O)[O-])N(CCCl)N=O`, the T/C runs as follows: (dose: 5.0 mg/kg/injection, schedule: Q01DX Z (ip), vehicle: carboxymethylcellulose (CMC)) 114 % of control; (dose: 10.0 mg/kg/injection, schedule: Q01DX Z (ip), vehicle: carboxymethylcellulose (CMC)) 90 % of control; (dose: 12.0 mg/kg/injection, schedule: Q01DX Z (ip), vehicle: carboxymethylcellulose (CMC)) 130 % of control; (dose: 18.0 mg/kg/injection, schedule: Q01DX Z (ip), vehicle: carboxymethylcellulose (CMC)) 120 % of control; (dose: 20.0 mg/kg/injection, schedule: Q01DX Z (ip), vehicle: carboxymethylcellulose (CMC)) 100 % of control; (dose: 27.0 mg/kg/injection, schedule: Q01DX Z (ip), vehicle: carboxymethylcellulose (CMC)) 139 % of control. Further, the T/C under setting [6] was 91 % of control. In addition, the survivor count under setting [6] is given as 6 of 6.
`COC(=O)C(C)(C)C(OP(C)(=O)OC)=C(C)C` (stereo unspecified): the T/C (dose: 5.0 mg/kg/injection, schedule: Q01DX001 (ip), vehicle: saline) was 98 % of control [survivor count not shown].
As to `CCN(CC(C)O)C(CC(C)C)CC(C)C` (stereo unspecified), the T/C was 98 % of control (dose: 75.0 mg/kg/injection, schedule: Q01DX001 (ip), vehicle: other); 102 % of control (dose: 150.0 mg/kg/injection, schedule: Q01DX001 (ip), vehicle: other); 101 % of control (dose: 300.0 mg/kg/injection, schedule: Q01DX001 (ip), vehicle: other).
Consider `[C-]#N.[C-]#N.[C-]#N.[C-]#N.[Fe+6].[N-]=CC1CCCC[N-]1` (stereo unspecified), for which the T/C is 89 % of control (dose: 75.0 mg/kg/injection, schedule: Q04DX002 (ip), vehicle: saline); 92 % of control (dose: 150.0 mg/kg/injection, schedule: Q04DX002 (ip), vehicle: saline); 95 % of control (dose: 300.0 mg/kg/injection, schedule: Q04DX002 (ip), vehicle: saline).
In the case of `BrCc1cccc(CBr)c1`, the T/C runs as follows: (dose: 6.25 mg/kg/injection, schedule: Q01DX009 (ip), vehicle: saline with Tween-80) 97 % of control; (dose: 6.25 mg/kg/injection, schedule: Q04DX003 (ip), vehicle: saline with Tween-80) 87 % of control; (dose: 12.5 mg/kg/injection, schedule: Q01DX009 (ip), vehicle: saline with Tween-80) 92 % of control; (dose: 12.5 mg/kg/injection, schedule: Q04DX003 (ip), vehicle: saline with Tween-80) 87 % of control; (dose: 25.0 mg/kg/injection, schedule: Q04DX003 (ip), vehicle: saline with Tween-80) 88 % of control. The survivor count is given as 5 of 6 (dose: 25.0 mg/kg/injection, schedule: Q01DX009 (ip), vehicle: saline with Tween-80); 0 of 6 under setting [1]; 0 of 6 under setting [2]; 0 of 6 under setting [5].
`S=P(Cl)(Cl)Oc1ccccc1`: the T/C was 96 % of control (dose: 6.25 mg/kg/injection, schedule: Q01DX009 (ip), vehicle: saline); 97 % of control (dose: 12.5 mg/kg/injection, schedule: Q01DX009 (ip), vehicle: saline); 105 % of control (dose: 25.0 mg/kg/injection, schedule: Q01DX009 (ip), vehicle: saline).
Take `COC(=O)C(Cl)CSC(=N)N` (stereo unspecified): the T/C was 97 % of control (dose: 75.0 mg/kg/injection, schedule: Q01DX001 (ip), vehicle: saline) and 103 % of control (dose: 150.0 mg/kg/injection, schedule: Q01DX001 (ip), vehicle: saline). The survivor count (dose: 300.0 mg/kg/injection, schedule: Q01DX001 (ip), vehicle: saline) is 1 of 6.
For the compound `COC(=O)C1(C)COP(=O)(Cl)OC1` (stereo unspecified), the T/C by setting is: under setting [7], 96 % of control; under setting [8], 97 % of control. Besides, the survivor count under setting [9] is listed as 4 of 6.
Take `O=Cc1c([N+](=O)[O-])cc([N+](=O)[O-])cc1[N+](=O)[O-]`: the T/C is 96 % of control [survivor count not shown] (dose: 4.0 mg/kg/injection, schedule: Q01DX015 (ip), vehicle: carboxymethylcellulose (CMC)); 98 % of control [survivor count not shown] (dose: 8.0 mg/kg/injection, schedule: Q01DX015 (ip), vehicle: carboxymethylcellulose (CMC)); 94 % of control [survivor count not shown] (dose: 16.0 mg/kg/injection, schedule: Q01DX015 (ip), vehicle: carboxymethylcellulose (CMC)); 100 [survivor count not shown] and 104 % of control [survivor count not shown] (dose: 32.0 mg/kg/injection, schedule: Q01DX015 (ip), vehicle: carboxymethylcellulose (CMC)).
For the compound `CS(=O)(=O)N[C@@H](CCl)[C@H](CCl)NS(C)(=O)=O`, the T/C under setting [7] was 100 % of control, the T/C under setting [8] was 96 % of control and the T/C under setting [9] was 102 % of control.
Turning to `CCOC(=O)C(CCSC)NC(=O)N(CCCl)CCCl` (stereo unspecified), the T/C (dose: 62.5 mg/kg/injection, schedule: Q01DX Z (ip), vehicle: water) is 105 % of control; the T/C (dose: 125.0 mg/kg/injection, schedule: Q01DX Z (ip), vehicle: water) was 111 % of control [5 of 6 alive]; the T/C (dose: 250.0 mg/kg/injection, schedule: Q01DX Z (ip), vehicle: water) was 113 % of control.

The values above are taken from PubChem BioAssay AID248 (DTP/NCI, 2004).
